This is one part of the list. The calls rarely recur for the same compound in another form.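 Kinases were expressed as nanoluciferase fusions in K562 cells and luminescence was read every 4 h between 2 and 18 h as percent of control, DMSO set to 100% and a positive control to 0%. A time point counts as decreased when the signal drops significantly (2 sigma). The hit call is the authors' own, does not follow from the count of time points alone, and its rule is not shown.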
Columns and labels:
Assay in all cases: kinase-Nluc reporter destabilization hit call (1 = scored as downregulated) (binary); higher = compound decreases kinase abundance
Settings in all cases: K562; 2-18 h
[1] = biological target: CDK7 (UniProt P50613)
[2] = biological target: CDK9 (UniProt P50750)
[3] = biological target: CHEK2 (UniProt O96017)
[4] = biological target: CSF1R (UniProt P07333)
[5] = biological target: CSK (UniProt P41240)
[6] = biological target: CSNK1A1 (UniProt P48729)
[7] = biological target: CSNK1D (UniProt P48730)
[8] = biological target: DDR1 (UniProt Q08345)
[9] = biological target: DYRK1B (UniProt Q9Y463)
[10] = biological target: DYRK2 (UniProt Q92630)
[11] = biological target: EGFR (UniProt P00533)
[12] = biological target: EGFR_G719S (UniProt P00533)
[13] = biological target: EGFR_G719S_T790M (UniProt P00533)
[14] = biological target: EGFR_L718V (UniProt P00533)
[15] = biological target: EGFR_L858R (UniProt P00533)
[16] = biological target: EGFR_L861Q (UniProt P00533)
[17] = biological target: EGFR_T790M (UniProt P00533)
[18] = biological target: EPHA2 (UniProt P29317)
[19] = biological target: ERBB3 (UniProt P21860)
[20] = biological target: ERBB4_R711C (clone: ERBB4_mut) (UniProt Q15303)

Amino acid sequences for entries named in this document (tags omitted). A change or cut given only in a name is not applied to a line headed by its entry.
UniProt P50613: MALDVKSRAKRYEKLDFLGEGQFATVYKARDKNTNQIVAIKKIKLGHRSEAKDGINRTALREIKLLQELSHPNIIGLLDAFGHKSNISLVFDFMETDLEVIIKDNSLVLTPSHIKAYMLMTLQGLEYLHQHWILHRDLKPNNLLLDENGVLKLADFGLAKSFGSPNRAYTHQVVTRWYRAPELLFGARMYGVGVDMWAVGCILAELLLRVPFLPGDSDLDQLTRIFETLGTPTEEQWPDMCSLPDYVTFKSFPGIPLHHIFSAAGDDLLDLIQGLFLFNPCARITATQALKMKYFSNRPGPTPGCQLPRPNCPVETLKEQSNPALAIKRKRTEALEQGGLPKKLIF
UniProt P50750, whole entry: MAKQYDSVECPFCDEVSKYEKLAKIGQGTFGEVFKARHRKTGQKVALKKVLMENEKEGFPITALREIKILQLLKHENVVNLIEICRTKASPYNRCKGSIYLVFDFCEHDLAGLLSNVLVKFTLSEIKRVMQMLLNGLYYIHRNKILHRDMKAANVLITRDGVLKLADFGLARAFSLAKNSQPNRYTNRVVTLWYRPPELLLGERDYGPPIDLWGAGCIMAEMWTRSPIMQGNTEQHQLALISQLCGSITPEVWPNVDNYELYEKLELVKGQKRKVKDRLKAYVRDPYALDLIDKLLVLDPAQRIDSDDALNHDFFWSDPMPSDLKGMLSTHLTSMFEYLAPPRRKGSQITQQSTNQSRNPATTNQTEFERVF
UniProt O96017, whole entry: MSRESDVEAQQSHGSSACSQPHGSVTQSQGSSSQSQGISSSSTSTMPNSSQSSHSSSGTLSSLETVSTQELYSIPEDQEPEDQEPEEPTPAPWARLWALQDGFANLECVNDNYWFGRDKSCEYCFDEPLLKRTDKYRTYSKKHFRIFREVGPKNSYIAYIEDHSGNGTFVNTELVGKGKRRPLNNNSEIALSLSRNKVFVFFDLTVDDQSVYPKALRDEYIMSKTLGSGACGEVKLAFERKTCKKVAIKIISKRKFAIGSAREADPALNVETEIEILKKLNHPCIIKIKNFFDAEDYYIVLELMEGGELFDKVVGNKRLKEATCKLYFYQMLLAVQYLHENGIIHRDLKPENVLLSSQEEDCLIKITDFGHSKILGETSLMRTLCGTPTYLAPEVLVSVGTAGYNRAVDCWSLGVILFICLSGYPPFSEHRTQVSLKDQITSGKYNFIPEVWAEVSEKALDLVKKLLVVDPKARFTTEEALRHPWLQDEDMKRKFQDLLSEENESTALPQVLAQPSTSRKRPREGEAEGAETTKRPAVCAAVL
UniProt P41240: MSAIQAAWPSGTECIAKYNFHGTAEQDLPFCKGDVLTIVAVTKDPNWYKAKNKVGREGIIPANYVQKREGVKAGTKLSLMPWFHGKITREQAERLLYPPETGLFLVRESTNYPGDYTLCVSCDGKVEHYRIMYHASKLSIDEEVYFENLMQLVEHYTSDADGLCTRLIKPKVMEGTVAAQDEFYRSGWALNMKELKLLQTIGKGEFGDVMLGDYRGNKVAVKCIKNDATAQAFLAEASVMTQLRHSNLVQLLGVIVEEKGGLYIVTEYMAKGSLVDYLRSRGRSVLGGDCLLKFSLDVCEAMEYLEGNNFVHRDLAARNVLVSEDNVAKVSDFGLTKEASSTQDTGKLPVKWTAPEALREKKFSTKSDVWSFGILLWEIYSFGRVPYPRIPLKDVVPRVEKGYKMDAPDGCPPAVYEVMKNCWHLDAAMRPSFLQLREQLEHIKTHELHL
UniProt P48730: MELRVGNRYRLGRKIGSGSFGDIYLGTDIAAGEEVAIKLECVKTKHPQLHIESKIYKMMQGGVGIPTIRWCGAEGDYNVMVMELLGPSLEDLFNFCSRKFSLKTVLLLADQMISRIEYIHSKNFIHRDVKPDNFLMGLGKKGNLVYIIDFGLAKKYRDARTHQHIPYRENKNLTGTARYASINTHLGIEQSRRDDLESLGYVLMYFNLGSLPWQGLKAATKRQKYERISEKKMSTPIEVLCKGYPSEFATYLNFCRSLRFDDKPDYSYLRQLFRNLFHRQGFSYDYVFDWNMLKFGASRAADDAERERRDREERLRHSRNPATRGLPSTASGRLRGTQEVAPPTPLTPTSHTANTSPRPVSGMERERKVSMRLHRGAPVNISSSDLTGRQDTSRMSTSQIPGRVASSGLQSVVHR
UniProt Q08345: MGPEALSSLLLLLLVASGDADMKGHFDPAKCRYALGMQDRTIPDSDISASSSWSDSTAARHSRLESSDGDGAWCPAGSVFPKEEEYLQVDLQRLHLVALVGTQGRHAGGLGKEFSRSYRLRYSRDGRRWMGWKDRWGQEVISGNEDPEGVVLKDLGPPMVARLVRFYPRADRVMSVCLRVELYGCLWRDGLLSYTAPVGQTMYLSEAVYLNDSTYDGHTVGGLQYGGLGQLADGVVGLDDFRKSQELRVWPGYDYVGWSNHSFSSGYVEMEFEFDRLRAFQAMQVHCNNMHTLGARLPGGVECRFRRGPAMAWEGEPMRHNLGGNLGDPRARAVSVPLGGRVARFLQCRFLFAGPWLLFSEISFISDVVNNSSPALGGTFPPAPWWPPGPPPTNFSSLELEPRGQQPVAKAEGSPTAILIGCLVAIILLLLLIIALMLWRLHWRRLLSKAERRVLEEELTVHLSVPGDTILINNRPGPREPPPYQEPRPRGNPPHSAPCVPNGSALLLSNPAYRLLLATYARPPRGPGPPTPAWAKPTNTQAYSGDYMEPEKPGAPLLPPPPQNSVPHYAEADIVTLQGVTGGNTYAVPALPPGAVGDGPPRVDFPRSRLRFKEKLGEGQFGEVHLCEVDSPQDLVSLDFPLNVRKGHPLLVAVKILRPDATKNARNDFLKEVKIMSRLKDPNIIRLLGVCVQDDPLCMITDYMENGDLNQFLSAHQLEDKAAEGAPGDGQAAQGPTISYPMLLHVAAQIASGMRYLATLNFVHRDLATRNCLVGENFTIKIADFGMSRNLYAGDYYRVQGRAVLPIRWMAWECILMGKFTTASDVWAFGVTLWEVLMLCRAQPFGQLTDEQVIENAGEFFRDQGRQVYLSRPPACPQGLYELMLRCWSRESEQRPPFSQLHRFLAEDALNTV
UniProt Q9Y463, whole entry, looked up: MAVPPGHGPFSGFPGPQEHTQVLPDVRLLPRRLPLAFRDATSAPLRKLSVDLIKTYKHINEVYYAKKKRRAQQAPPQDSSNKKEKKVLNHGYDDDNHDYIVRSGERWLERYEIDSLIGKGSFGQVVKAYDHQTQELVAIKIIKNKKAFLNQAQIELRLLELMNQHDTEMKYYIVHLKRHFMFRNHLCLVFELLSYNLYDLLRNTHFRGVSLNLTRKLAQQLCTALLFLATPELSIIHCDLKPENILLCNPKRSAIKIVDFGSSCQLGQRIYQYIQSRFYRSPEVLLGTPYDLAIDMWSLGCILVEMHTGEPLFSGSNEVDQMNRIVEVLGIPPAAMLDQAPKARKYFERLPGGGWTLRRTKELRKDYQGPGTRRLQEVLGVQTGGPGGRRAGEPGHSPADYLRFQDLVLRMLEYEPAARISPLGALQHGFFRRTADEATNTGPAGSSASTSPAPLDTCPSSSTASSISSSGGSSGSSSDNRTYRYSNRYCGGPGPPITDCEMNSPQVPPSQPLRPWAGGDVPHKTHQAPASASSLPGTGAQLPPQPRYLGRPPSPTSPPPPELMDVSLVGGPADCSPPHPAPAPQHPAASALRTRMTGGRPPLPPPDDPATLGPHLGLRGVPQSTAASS
UniProt Q92630: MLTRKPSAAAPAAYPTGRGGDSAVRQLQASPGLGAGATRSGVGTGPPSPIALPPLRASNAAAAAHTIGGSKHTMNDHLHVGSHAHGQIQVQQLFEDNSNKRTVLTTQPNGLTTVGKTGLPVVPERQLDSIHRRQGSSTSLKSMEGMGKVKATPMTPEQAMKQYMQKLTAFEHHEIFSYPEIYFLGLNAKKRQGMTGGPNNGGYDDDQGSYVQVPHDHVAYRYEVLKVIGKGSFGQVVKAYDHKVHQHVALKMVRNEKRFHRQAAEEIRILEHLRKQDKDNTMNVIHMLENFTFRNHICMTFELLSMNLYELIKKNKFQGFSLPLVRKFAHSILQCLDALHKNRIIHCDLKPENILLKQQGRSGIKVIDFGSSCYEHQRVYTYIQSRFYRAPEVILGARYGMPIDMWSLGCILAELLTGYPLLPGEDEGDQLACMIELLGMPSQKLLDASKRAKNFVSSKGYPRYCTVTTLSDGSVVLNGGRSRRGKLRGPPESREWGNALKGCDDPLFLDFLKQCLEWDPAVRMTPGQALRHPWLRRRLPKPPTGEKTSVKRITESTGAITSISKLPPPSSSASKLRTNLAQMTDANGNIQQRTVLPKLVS
UniProt P29317, whole entry: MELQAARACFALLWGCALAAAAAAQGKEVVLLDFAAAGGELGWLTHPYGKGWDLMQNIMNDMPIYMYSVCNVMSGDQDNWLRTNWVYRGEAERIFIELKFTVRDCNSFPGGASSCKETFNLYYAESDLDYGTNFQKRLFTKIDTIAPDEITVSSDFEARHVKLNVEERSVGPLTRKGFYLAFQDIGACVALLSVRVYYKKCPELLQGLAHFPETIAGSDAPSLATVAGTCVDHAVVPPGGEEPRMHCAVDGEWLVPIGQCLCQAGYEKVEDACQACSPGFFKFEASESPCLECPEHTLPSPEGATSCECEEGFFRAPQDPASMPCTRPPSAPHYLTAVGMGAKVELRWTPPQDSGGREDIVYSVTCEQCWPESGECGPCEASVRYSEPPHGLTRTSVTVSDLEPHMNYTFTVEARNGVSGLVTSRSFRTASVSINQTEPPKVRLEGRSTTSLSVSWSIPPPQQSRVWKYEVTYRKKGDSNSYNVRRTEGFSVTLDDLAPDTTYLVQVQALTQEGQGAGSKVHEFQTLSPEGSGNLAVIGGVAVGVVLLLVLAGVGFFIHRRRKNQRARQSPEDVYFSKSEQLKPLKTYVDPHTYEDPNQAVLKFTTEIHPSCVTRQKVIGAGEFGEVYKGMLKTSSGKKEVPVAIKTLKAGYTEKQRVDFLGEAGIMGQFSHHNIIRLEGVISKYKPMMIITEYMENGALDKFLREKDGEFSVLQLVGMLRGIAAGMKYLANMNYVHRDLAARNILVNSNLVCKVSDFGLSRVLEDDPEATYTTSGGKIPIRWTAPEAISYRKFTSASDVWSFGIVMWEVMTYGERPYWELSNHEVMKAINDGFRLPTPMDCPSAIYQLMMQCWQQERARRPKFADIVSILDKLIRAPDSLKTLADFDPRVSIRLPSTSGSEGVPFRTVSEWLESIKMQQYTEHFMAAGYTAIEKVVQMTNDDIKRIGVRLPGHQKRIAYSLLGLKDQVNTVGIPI
UniProt P21860, whole entry: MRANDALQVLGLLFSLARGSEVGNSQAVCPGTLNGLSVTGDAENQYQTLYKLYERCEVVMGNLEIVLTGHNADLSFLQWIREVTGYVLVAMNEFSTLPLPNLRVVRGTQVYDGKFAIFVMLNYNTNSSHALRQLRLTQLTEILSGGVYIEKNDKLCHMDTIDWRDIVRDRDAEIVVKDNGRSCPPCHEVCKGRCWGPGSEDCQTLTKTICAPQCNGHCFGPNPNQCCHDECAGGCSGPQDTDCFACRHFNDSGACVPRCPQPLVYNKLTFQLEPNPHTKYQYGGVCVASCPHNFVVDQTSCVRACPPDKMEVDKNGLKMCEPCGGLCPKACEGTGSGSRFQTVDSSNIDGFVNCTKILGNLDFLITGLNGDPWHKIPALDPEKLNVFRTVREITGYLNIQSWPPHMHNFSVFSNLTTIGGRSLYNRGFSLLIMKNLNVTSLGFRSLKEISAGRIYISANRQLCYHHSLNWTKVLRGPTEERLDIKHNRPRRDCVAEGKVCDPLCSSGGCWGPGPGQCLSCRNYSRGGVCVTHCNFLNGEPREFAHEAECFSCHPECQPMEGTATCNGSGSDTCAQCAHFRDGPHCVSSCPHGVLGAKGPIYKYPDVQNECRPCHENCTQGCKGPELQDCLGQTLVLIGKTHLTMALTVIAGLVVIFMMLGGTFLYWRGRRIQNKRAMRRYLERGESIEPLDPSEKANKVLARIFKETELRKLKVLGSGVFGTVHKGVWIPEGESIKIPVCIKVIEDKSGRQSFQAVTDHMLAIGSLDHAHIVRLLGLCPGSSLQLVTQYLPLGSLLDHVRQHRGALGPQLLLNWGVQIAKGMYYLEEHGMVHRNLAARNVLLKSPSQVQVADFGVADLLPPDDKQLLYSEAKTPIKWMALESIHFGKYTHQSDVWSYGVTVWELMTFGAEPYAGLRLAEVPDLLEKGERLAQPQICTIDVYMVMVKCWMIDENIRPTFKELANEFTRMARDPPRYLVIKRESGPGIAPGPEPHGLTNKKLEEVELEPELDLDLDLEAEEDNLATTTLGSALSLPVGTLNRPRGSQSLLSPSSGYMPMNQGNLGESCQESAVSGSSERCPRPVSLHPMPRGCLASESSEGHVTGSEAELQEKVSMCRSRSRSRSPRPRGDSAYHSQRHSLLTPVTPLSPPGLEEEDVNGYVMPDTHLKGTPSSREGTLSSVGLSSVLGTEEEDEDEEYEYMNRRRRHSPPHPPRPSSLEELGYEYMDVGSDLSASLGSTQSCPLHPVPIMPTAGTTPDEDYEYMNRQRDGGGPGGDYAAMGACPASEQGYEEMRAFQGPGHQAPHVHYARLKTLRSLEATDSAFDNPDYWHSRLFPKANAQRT

Measured: kinase-Nluc reporter destabilization hit call

Cc1nc(NC(=O)NCCc2nnn(CCF)n2)sc1-c1ccc(S(C)(=O)=O)c(F)c1 (10 µM)
inactive: [1] 0 | [2] 0 | [3] 0 | [4] 0 | [5] 0 | [6] 0 | [7] 0 | [8] 0 | [9] 0 | [10] 0 | [11] 0 | [12] 0 | [13] 0 | [14] 0 | [15] 0 | [16] 0 | [17] 0 | [18] 0 | [19] 0 | [20] 0

C=C[C@H]1[C@H](O[C@@H]2O[C@H](CO)[C@@H](O)[C@H](O)[C@H]2OC(=O)c2c(O)cc(O)cc2-c2cccc(O)c2)OC=C2C(=O)OCC[C@H]21 [Amarogentin] (10 µM)
inactive: [1] 0 | [2] 0 | [3] 0 | [4] 0 | [5] 0 | [6] 0 | [7] 0 | [8] 0 | [9] 0 | [10] 0 | [11] 0 | [12] 0 | [13] 0 | [14] 0 | [15] 0 | [16] 0 | [17] 0 | [18] 0 | [19] 0 | [20] 0

CC[C@@H]1C(=O)N(C)c2cnc(Nc3ccc(C(=O)N[C@H]4CC[C@H](N5CCN(CC6CC6)CC5)CC4)cc3OC)nc2N1C(C)C [Volasertib] (2.5 µM)
inactive: [1] 0 | [2] 0 | [3] 0 | [4] 0 | [5] 0 | [6] 0 | [7] 0 | [8] 0 | [9] 0 | [10] 0 | [11] 0 | [12] 0 | [13] 0 | [14] 0 | [15] 0 | [16] 0 | [17] 0 | [18] 0 | [19] 0 | [20] 0

O=C(Nc1ccc(Cl)c(Cl)c1)Nc1ccc2nnsc2c1 (10 µM)
inactive: [1] 0 | [2] 0 | [3] 0 | [4] 0 | [5] 0 | [6] 0 | [7] 0 | [8] 0 | [9] 0 | [10] 0 | [11] 0 | [12] 0 | [13] 0 | [14] 0 | [15] 0 | [16] 0 | [17] 0 | [18] 0 | [19] 0 | [20] 0

O=C(O)c1ccccc1Nc1cccc(C(F)(F)F)c1 [Flufenamic acid] (10 µM)
inactive: [1] 0 | [3] 0 | [4] 0 | [5] 0 | [6] 0 | [7] 0 | [8] 0 | [9] 0 | [10] 0 | [11] 0 | [12] 0 | [13] 0 | [14] 0 | [15] 0 | [16] 0 | [17] 0 | [18] 0 | [19] 0 | [20] 0
active: [2] 1

O=C1NCCCc2c1oc1ccc(O)cc21 (10 µM)
inactive: [1] 0 | [2] 0 | [3] 0 | [4] 0 | [5] 0 | [6] 0 | [7] 0 | [8] 0 | [9] 0 | [10] 0 | [11] 0 | [12] 0 | [13] 0 | [14] 0 | [15] 0 | [16] 0 | [17] 0 | [18] 0 | [19] 0 | [20] 0

COc1ccc(CNc2nc(N(CCO)CCO)nc3c2ncn3C(C)C)cc1 (2.5 µM)
inactive: [1] 0 | [2] 0 | [3] 0 | [4] 0 | [5] 0 | [6] 0 | [7] 0 | [8] 0 | [9] 0 | [10] 0 | [11] 0 | [12] 0 | [13] 0 | [14] 0 | [15] 0 | [16] 0 | [17] 0 | [18] 0 | [19] 0 | [20] 0

CCN(C)C(=O)c1ccc2c(C(=Nc3ccc(CN4CCCCC4)cc3)c3ccccc3)c(O)[nH]c2c1 (2.5 µM)
inactive: [1] 0 | [2] 0 | [3] 0 | [4] 0 | [5] 0 | [6] 0 | [7] 0 | [8] 0 | [9] 0 | [10] 0 | [11] 0 | [12] 0 | [13] 0 | [14] 0 | [15] 0 | [16] 0 | [17] 0 | [18] 0 | [19] 0 | [20] 0

C=CC(=O)Nc1cccc(Oc2nc(Nc3ccc(N4CCN(C)CC4)cc3)nc3ccoc23)c1 [Poseltinib] (10 µM)
inactive: [1] 0 | [2] 0 | [3] 0 | [4] 0 | [5] 0 | [6] 0 | [7] 0 | [8] 0 | [9] 0 | [10] 0 | [11] 0 | [12] 0 | [13] 0 | [14] 0 | [15] 0 | [16] 0 | [17] 0 | [18] 0 | [19] 0 | [20] 0

Cc1cc2ncc(-c3ccccc3)nc2cc1C (10 µM)
inactive: [1] 0 | [2] 0 | [3] 0 | [4] 0 | [5] 0 | [6] 0 | [7] 0 | [8] 0 | [9] 0 | [10] 0 | [11] 0 | [12] 0 | [13] 0 | [14] 0 | [15] 0 | [16] 0 | [17] 0 | [18] 0 | [19] 0 | [20] 0

COC(=O)[C@@]1(C)CC[C@]2(C(=O)O)CC[C@]3(C)C(=CC[C@@H]4[C@@]5(C)C[C@H](O)[C@H](O[C@@H]6OC[C@@H](O[C@@H]7O[C@H](CO)[C@@H](O)[C@H](O)[C@H]7O)[C@H](O)[C@H]6O)[C@@](C)(CO)[C@@H]5CC[C@]43C)[C@@H]2C1 [Esculentoside A] (10 µM)
inactive: [1] 0 | [2] 0 | [3] 0 | [4] 0 | [5] 0 | [6] 0 | [7] 0 | [8] 0 | [9] 0 | [10] 0 | [11] 0 | [12] 0 | [13] 0 | [14] 0 | [15] 0 | [16] 0 | [17] 0 | [18] 0 | [19] 0 | [20] 0

CCc1c(C)sc(NC(=S)NC(=O)c2ccc(Cl)cc2)c1C(N)=O (10 µM)
inactive: [1] 0 | [2] 0 | [3] 0 | [4] 0 | [5] 0 | [6] 0 | [7] 0 | [8] 0 | [9] 0 | [10] 0 | [11] 0 | [12] 0 | [13] 0 | [14] 0 | [15] 0 | [16] 0 | [17] 0 | [18] 0 | [19] 0 | [20] 0

C[C@@H]1C[C@H]2O[C@@]3(O[C@@H]2C(C)(C)O)[C@H](O)[C@@]2(C)[C@@H]4CC[C@H]5C(C)(C)[C@@H](O[C@@H]6OC[C@H](O)[C@H](O)[C@H]6O)CC[C@@]56C[C@@]46CC[C@]2(C)[C@@H]13 [Cimiracemoside C] (10 µM)
inactive: [1] 0 | [2] 0 | [3] 0 | [4] 0 | [5] 0 | [6] 0 | [7] 0 | [8] 0 | [9] 0 | [10] 0 | [11] 0 | [12] 0 | [13] 0 | [14] 0 | [15] 0 | [16] 0 | [17] 0 | [18] 0 | [19] 0 | [20] 0

CCN1/C(=C/C(C)=O)Sc2ccc(OC)cc21 (10 µM)
inactive: [1] 0 | [2] 0 | [3] 0 | [4] 0 | [5] 0 | [6] 0 | [7] 0 | [8] 0 | [9] 0 | [10] 0 | [11] 0 | [12] 0 | [13] 0 | [14] 0 | [15] 0 | [16] 0 | [17] 0 | [18] 0 | [19] 0 | [20] 0

Part of the list above in order of SMILES length, smallest number first.
O=C1NCCCc2c1oc1ccc(O)cc21 (10 µM)
inactive: [1] 0 | [2] 0 | [3] 0 | [4] 0 | [5] 0 | [6] 0 | [7] 0 | [8] 0 | [9] 0 | [10] 0 | [11] 0 | [12] 0 | [13] 0 | [14] 0 | [15] 0 | [16] 0 | [17] 0 | [18] 0 | [19] 0 | [20] 0

CCN1/C(=C/C(C)=O)Sc2ccc(OC)cc21 (10 µM)
inactive: [1] 0 | [2] 0 | [3] 0 | [4] 0 | [5] 0 | [6] 0 | [7] 0 | [8] 0 | [9] 0 | [10] 0 | [11] 0 | [12] 0 | [13] 0 | [14] 0 | [15] 0 | [16] 0 | [17] 0 | [18] 0 | [19] 0 | [20] 0

CCN(C)C(=O)c1ccc2c(C(=Nc3ccc(CN4CCCCC4)cc3)c3ccccc3)c(O)[nH]c2c1 (2.5 µM)
inactive: [1] 0 | [2] 0 | [3] 0 | [4] 0 | [5] 0 | [6] 0 | [7] 0 | [8] 0 | [9] 0 | [10] 0 | [11] 0 | [12] 0 | [13] 0 | [14] 0 | [15] 0 | [16] 0 | [17] 0 | [18] 0 | [19] 0 | [20] 0

Continued.

CC1=C(C(=O)Nc2ccc3[nH]ncc3c2)C(c2ccc(F)cc2)NC(=O)N1 (stereo not given) (10 µM)
inactive: [1] 0 | [2] 0 | [3] 0 | [4] 0 | [5] 0 | [6] 0 | [7] 0 | [8] 0 | [9] 0 | [10] 0 | [11] 0 | [12] 0 | [13] 0 | [14] 0 | [15] 0 | [16] 0 | [17] 0 | [18] 0 | [19] 0 | [20] 0

O=C(Nc1cccc(-c2nncn2C2CC2)c1)c1cc(-n2cnc(C3CC3)c2)ccn1 (10 µM)
inactive: [1] 0 | [2] 0 | [3] 0 | [4] 0 | [5] 0 | [6] 0 | [7] 0 | [8] 0 | [9] 0 | [10] 0 | [11] 0 | [12] 0 | [13] 0 | [14] 0 | [15] 0 | [16] 0 | [17] 0 | [18] 0 | [19] 0 | [20] 0

Cc1cccc(-c2[nH]ncc2-c2ccc3ncccc3n2)n1 (10 µM)
inactive: [1] 0 | [2] 0 | [3] 0 | [4] 0 | [5] 0 | [6] 0 | [7] 0 | [8] 0 | [9] 0 | [10] 0 | [11] 0 | [12] 0 | [13] 0 | [14] 0 | [15] 0 | [16] 0 | [17] 0 | [18] 0 | [19] 0 | [20] 0

Reference: the supplement of paper PMC12823440, “Inhibitors supercharge kinase turnover through native proteolytic circuits” (Nature, 2025)
